Reference: paper doi:10.1101/2022.12.21.521423 (bioRxiv, 2022)

Columns and labels:
[1] = biological target: macaque LRRC37B-HA (macaque); assay: co-IP
[2] = biological target: chimpanzee LRRC37B-HA (chimpanzee); assay: co-IP

B1: FGF13A (ligand, UniProt Q92913-1 1-245)
chain: MAAAIASSLIRQKRQAREREKSNACKCVSSPSKGKTSCDKNKLNVFSRVKLFGSKKRRRRRPEPQLKGIVTKLYSRQGYHLQLQADGTIDGTKDEDSTYTLFNLIPVGLRVVAIQGVQTKLYLAMNSEGYLYTSELFTPECKFKESVFENYYVTYSSMIYRQQQSGRGWYLGLNKEGEIMKGNHVKKNKPAAHFLPKPLKVAMYKEPSLHDLTEFSRSGSGTPTKSRSVSGVLNGGKSMSHNEST
- binding [1]: no binding
- binding [2]: binds

Results are given in words; binding and its absence hold for the method and conditions named. In cells and extracts the contact can be indirect. For some assays here: Binding can be weak; no strength is given.
